Laboratory results taken from publication PMC11774319.
Results are given in words; binding and its absence hold for the method and conditions named.

Sequences of proteins named here, by UniProt entry; tags and fusion partners are left off. A change or cut given only in a name is not applied to a line headed by its entry.
UniProt P62324: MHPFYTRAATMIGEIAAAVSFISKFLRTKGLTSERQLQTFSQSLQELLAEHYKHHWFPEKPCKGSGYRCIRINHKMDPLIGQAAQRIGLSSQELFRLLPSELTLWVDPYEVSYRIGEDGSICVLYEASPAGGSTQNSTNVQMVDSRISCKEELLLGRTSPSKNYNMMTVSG
UniProt Q9UIV1: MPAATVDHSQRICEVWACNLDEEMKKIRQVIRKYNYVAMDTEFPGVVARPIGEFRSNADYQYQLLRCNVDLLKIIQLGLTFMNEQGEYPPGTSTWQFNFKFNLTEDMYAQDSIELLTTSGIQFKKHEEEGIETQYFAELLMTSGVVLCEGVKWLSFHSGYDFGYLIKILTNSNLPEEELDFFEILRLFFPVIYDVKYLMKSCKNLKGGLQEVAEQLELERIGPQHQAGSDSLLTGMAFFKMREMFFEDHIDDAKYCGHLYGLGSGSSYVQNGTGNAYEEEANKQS

Target: BTG1 two-hybrid fusion (UniProt P62324)
Assay: two-hybrid

**Q.** Which binding does the source give for “AD-CNOT7 E247A,Y260A (from UniProt Q9UIV1 1-285)” here?
**A.** Its binding is “no binding”.
